# Measurements as given in PubChem BioAssay AID493014 (National Center for Advancing Translational Sciences (NCATS), 2011).
# Screen size: about 340,000 compounds; about 170 (0.05%) were called active. The shares of active, inactive and inconclusive entries below differ from those in the screen. The call rests on the fitted dose curve; in most records, active means well fitted inhibition curve with a large enough effect in the signal ratio, with a control signal flat (not every such curve was filed as active); inconclusive means small, poorly fitted or top-dose-only effect, or effect the other way, or a change in a side signal; inactive means flat fitted curve, though single readings scatter; the % refers to the signal ratio. Where the call is inconclusive, the potency comes from a doubtful curve fit.
# Test: qHTS Assay to Find Inhibitors of Chronic Active B-Cell Receptor Signaling;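 on activity change, negative = inhibition: plate controls were basal doxycycline-induced cells for no effect and cells given 10 µM MG132 for full effect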
# Details: ABC-DLBCL IkBa-CBG/CBR reporter, luminescence ratio (green luciferase fused to IkBa over red control in TMD8 lymphoma cells), 4 h; activity change, negative = inhibition: at 46.1 µM (top of the series)
# In short: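 Compounds up to 46 uM were incubated four hours with TMD8 cells whose green CBG68 luciferase is fused to IkappaBalpha; red CBR luminescence normalised the signal, and concentration-effect curves were fitted to fusion, red and ratio data.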
# Potency means the concentration at half of the fitted maximal effect.
Structure (SMILES),"activity change, negative = inhibition",Potency
O=C(CSc1nc2ccccc2c(=O)n1-c1ccccc1Cl)Nc1cccc(S(=O)(=O)N2CCOCC2)c1,inconclusive: -2.44%,–
O=C1C=C(Nc2ccc(O)cc2)CC(c2ccco2)C1 (configuration not stated),inconclusive: -25%,–
Cn1cc(Cl)c(C(=O)Nc2nc3ccccc3s2)n1,–,"inconclusive: 4.11 µM [rising, full curve, poor fit]"
O=c1[nH]c2ccc(S(=O)(=O)N3CCN(c4ccc(F)cc4)CC3)cc2o1,inconclusive: 14.2%,–
Cc1ccc(Cl)cc1NC(=S)N(Cc1cccnc1)Cc1ccccc1Cl,inconclusive: 4.83%,–
Cc1cccc(C)c1OCC(=O)NNC(=O)Nc1ccc(Cl)cc1,inconclusive: -13.9%,–
COC(=O)c1cc(OC)c(OC)cc1NC(=O)c1ccc(OC)c(OC)c1,inconclusive: -0.299%,–
C/C(=N\NC(N)=S)c1ccc(Cl)s1,–,"inconclusive: 29.1 µM [falling, single point]"
CN(CC(=O)Nc1ccc(F)cc1)C(=O)COC(=O)C1CCN(c2ccc(C(F)(F)F)cn2)CC1,inconclusive: -16.1%,–
Cn1c(SCC(=O)Nc2cc(=O)n(C)c(=O)n2C)nnc1-c1cccs1,inconclusive: -9.81%,–
Cc1ccc(-n2ncc3c(=O)n(-c4ccc(C)c(C)c4)c(C)nc32)cc1,inconclusive: 3.88%,–
CCC(=O)NC(=S)Nc1ccc(-c2nc3ccc(C)cc3s2)cc1,inactive,–
CCc1ccc(OCCSc2nc3ccccc3n2CCC(=O)O)cc1,inconclusive: 3.26%,–
O=C(Nc1nccs1)c1ccc(-c2ccc(F)c(Cl)c2)o1,inconclusive: -1.63%,–
CCOC(=O)c1cnc2c(c(C3CC3)nn2C)c1N1CCOCC1,inconclusive: 11.9%,–
COc1cc([N+](=O)[O-])cc(/C=N/NC(=O)CC#N)c1O,inactive,–
CC(C)(C)c1nnc(NC(=O)C2c3ccccc3Oc3ccccc32)s1,inconclusive: -5.26%,–
CCOC(=O)C1=C(c2ccccc2)N=c2s/c(=C\c3ccc(O)cc3)c(=O)n2C1c1cccs1 (configuration not stated),–,"inconclusive: 7.08 µM [rising, partial curve, poor fit]"
O=C(Nc1nccs1)c1csc2c1CCCC2,–,"inconclusive: 1.16 µM [rising, full curve]"
Cc1cccc2cc(CN(Cc3ccco3)C(=O)c3ccncc3)c(=O)[nH]c12,inactive,–
CCc1nc2ccc(C(=O)Nc3ccc4c(c3)OCO4)cc2nc1CC,inconclusive: 12.1%,–

Structure (SMILES),"activity change, negative = inhibition",Potency
Fc1ccc(COc2ccc3ccccc3c2CNc2nn[nH]n2)cc1,inconclusive: 0.44%,–
O=C(/C=C/c1ccco1)Nc1cccc(NC(=O)/C=C/c2ccco2)n1,inconclusive: -17.7%,–
Cc1ccc(S(=O)(=O)NCC(=O)OCC(=O)NC(=O)NC2CCCC2)cc1,inconclusive: -1.39%,–
Nc1nn(-c2ccccc2)c2ccc([N+](=O)[O-])cc12,–,"inconclusive: 25.1 µM [falling, partial curve]"
CCCCCCn1c(=O)c(-c2ccccc2)c(O)c2ccccc21,inconclusive: 1.9%,–
COc1ccc(NS(=O)(=O)c2ccc(-c3coc(C)n3)cc2)cc1OC,inactive,–
CN(C(=O)/C=C/c1ccc2c(c1)OCO2)c1ccccc1,–,"inconclusive: 20 µM [falling, single point]"
Cc1ccc(CN(Cc2cc3cc4c(cc3[nH]c2=O)OCCO4)Cc2nnnn2Cc2ccco2)cc1,–,"inconclusive: 6.51 µM [falling, single point]"
CSc1ccccc1NC(=O)c1cc2c(=O)n3ccccc3nc2s1,inconclusive: -8.13%,–
Cc1cnc(C(=O)OCC(=O)Nc2ccc(OCc3ccccc3)cc2)cn1,inconclusive: 3.7%,–
COc1cc2c(cc1OC)CN(C(=O)Cc1ccccc1)CC2,–,"inconclusive: 22.4 µM [falling, single point]"
Cn1cc(CNCc2ccc(-n3cccn3)cc2)c(-c2ccccc2F)n1,inactive,–
Cc1cc(N/N=C/c2cccc(Br)c2)nc2ccccc12,inconclusive: 12%,–
Cc1ccnc(NC(=O)c2ccc([N+](=O)[O-])o2)c1,inactive,–
CN(c1ccccc1)S(=O)(=O)c1cccc(NC(=O)CCNC(=O)c2ccc(Cl)cc2)c1,inconclusive: 1.1%,–
C[C@]12c3[nH]c4ccc(Cl)cc4c3CCN1C(=O)[C@@H](CC(=O)NCc1cccc(C(F)(F)F)c1)C[C@@H]2C(=O)N1CCOCC1,inconclusive: -23%,–
CCCn1c(=O)c(C(=O)NCCc2ccc(OC)cc2)c(O)c2ccccc21,inactive,–
C(=C\CSc1ncn[nH]1)/CSc1ncn[nH]1,inconclusive: -15.3%,–
COc1ccc2nc(N3C(=O)CC(Cc4cc(C)cc(C)c4)C3=O)sc2c1 (configuration not stated),inconclusive: -19.8%,–
Nc1cccc2c1C(=O)N(C(=O)c1cccc(S(=O)(=O)N3CCCC3)c1)C2=O,inconclusive: 12.3%,–
Cc1cccc(NC(=O)CN2C(=O)N/C(=C/c3ccc(C)o3)C2=O)c1,–,"inconclusive: 29.1 µM [rising, single point]"

# Copied from the results shown (5 entries):
Structure (SMILES),"activity change, negative = inhibition",Potency
Nc1nn(-c2ccccc2)c2ccc([N+](=O)[O-])cc12,–,"inconclusive: 25.1 µM [falling, partial curve]"
CCCCCCn1c(=O)c(-c2ccccc2)c(O)c2ccccc21,inconclusive: 1.9%,–
COc1ccc(NS(=O)(=O)c2ccc(-c3coc(C)n3)cc2)cc1OC,inactive,–
CN(C(=O)/C=C/c1ccc2c(c1)OCO2)c1ccccc1,–,"inconclusive: 20 µM [falling, single point]"
Cc1ccc(CN(Cc2cc3cc4c(cc3[nH]c2=O)OCCO4)Cc2nnnn2Cc2ccco2)cc1,–,"inconclusive: 6.51 µM [falling, single point]"

# Additional results follow.

Structure (SMILES),"activity change, negative = inhibition",Potency
CNC(=S)N1N=C(c2ccc(Br)cc2)CC1c1ccc(Br)cc1 (configuration not stated),inconclusive: 29.5%,–
Cc1cc(=O)n(Cc2ccccc2)c2c(C)cccc12,inconclusive: 0.228%,–
COc1ccc(-c2cc(C(=O)NC(C)c3ccccc3)c3cc(C(C)C)ccc3n2)cc1 (configuration not stated),inconclusive: -2.03%,–
CCOC(=O)c1c(N)n(CCOC(=O)c2cccs2)c2nc3ccccc3nc12,inconclusive: 4.84%,–
O=C(CN1C(=O)/C(=C/c2ccccc2)SC1=S)NC1C=CS(=O)(=O)C1 (configuration not stated),–,"inconclusive: 22.4 µM [falling, single point]"
CC(C)(C)OC(=O)C(Cl)(C(=O)OC(C)(C)C)c1ccc2nnnn2n1,inactive,–
CN1C(CC(=O)Nc2ccc(Br)cc2)c2ccccc2CC1(C)C (configuration not stated),–,"inconclusive: 22.4 µM [falling, single point]"
O=C(N/N=C\c1ccc([N+](=O)[O-])s1)C1COc2ccccc2O1 (configuration not stated),inactive,–
CC1C=CCC2C(=O)N(c3cccc(C(=O)Nc4ccc(F)cc4)c3)C(=O)C12 (configuration not stated),inconclusive: -7.48%,–
Cc1ccn2c(c1)nc(=S)n2C(=O)c1ccco1,inconclusive: 5.71%,–
N#C/C(=C\c1ccc(Sc2ccc(Cl)cc2)o1)c1nc2ccccc2[nH]1,inactive,–
O=C1CN(CC(=O)N2CCOCC2)c2ccccc2O1,–,"inconclusive: 14.1 µM [falling, partial curve]"
COc1ccc(S(=O)(=O)n2nc(C)cc2C)c(C)c1C,inconclusive: 18%,–
COc1cccc2cc(/C(=N/O)c3ccc(Br)cc3)oc12,inconclusive: 5.26%,–
CC(=O)Nc1ccc(/C=C/c2nc3ccccc3[nH]c2=O)cc1,inactive,–
COc1cccc(CNC(=O)c2ccc(CNS(=O)(=O)c3ccc(C)cc3)cc2)c1,inactive,–
CCOC(=O)Nc1ccc2c(c1)N(C(=O)CCN(CC)CC)c1ccccc1CC2,inconclusive: -7.21%,–
CCOC(=O)C1=C(c2ccccc2)N(C)C(=O)NC1c1ccc(OC(F)F)c(OC)c1 (configuration not stated),inconclusive: -13.7%,–
CCOC(=O)C1(CCCc2ccccc2)CCN(C(=O)c2ocnc2C)CC1,inactive,–
CCOc1ccccc1NC(=O)Cn1nnc(-c2ccc(OCC)c(OCC)c2)n1,–,"inconclusive: 23.1 µM [falling, single point]"
Cn1cnc2c1c(=O)n(Cc1ccccc1)c(=O)n2C,inconclusive: 0.891%,–

Structure (SMILES),"activity change, negative = inhibition",Potency
Cc1nn(S(=O)(=O)N2CCCCC2)c(C)c1Br,inconclusive: 9.18%,–
COc1ccccc1C1(O)CCN(CC(=O)Nc2nc(-c3ccccc3)cs2)CC1,inconclusive: -0.322%,–
Nc1c(C(=O)N2CCOCC2)oc2ccccc12,–,"inconclusive: 10 µM [falling, partial curve, poor fit]"
Cc1ccccc1Nc1cc(C)c2c(O)cccc2n1,inactive,–
CC1(C)CC(=O)C=C(Nc2cc(-c3ccccc3)[nH]n2)C1,–,"inconclusive: 12.6 µM [falling, partial curve]"
CCNC(=O)O/N=C(\C)c1sc(-c2ccc(Cl)cc2)nc1C,inactive,–
Cc1occc1C(=O)N/N=C/C(Br)=C\c1ccccc1,–,"inconclusive: 31.6 µM [rising, single point]"
CCc1c(C)[nH]n(-c2nc(-c3ccccc3)cs2)c1=O,inconclusive: 7.92%,–
COCCN(CC(=O)Nc1cccc(C)c1C)C(=O)CN1C(=O)NC2(CCCCC2)C1=O,inconclusive: 5.27%,–
CSc1nc2ccc(NC(=O)CSc3nnc(N)s3)cc2s1,–,"inconclusive: 1.3 µM [rising, full curve, poor fit]"
CC(C)[C@H](N)C(=O)NC[C@H]1O[C@@H](n2cnc3c(N)ncnc32)[C@H](O)[C@@H]1O,inactive,–
Cc1cccc(CN2CCN(C(=O)CN(C)C(C)C(=O)Nc3ccc(C(N)=O)cc3)CC2)c1 (configuration not stated),inactive,–
CC(C)=CCC/C(C)=C/C=N/NC(=O)c1ccccc1[N+](=O)[O-],inactive,–
COc1cc(OC)c2c(-c3cccc(-c4ccc(N(C)C)cc4)c3)cc(=O)oc2c1,–,"inconclusive: 1.84 µM [falling, full curve]"
N#Cc1ccc(CN2CCN(C(=O)Cn3nc(C(N)=O)c4ccccc4c3=O)CC2)cc1,inactive,–
Cn1cccc1-c1cc(C(=O)N2CCc3c([nH]c4ccccc34)C2c2ccccn2)[nH]n1 (configuration not stated),inactive,–
O=C(CSc1n[nH]c(-c2ccccc2)n1)c1ccccc1,–,"inconclusive: 23.1 µM [falling, single point]"
Cc1ccc2nc(N3CCN(S(=O)(=O)c4ccc(C)c(Cl)c4)CC3)c(C#N)cc2c1,inactive,–
O=C(NNC(=O)c1cccc(O)c1)Nc1ccc([N+](=O)[O-])cc1,inconclusive: -11.4%,–
